Measured data: PubChem BioAssay AID652259 (Drosophila RNAi Screening Center, 2013)

Assay: 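Genome-wide hunt for genes that control Wingless pathway activity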 (primary screen)
Cell system: Drosophila clone 8 imaginal disc epithelial cells
Knock-down reagent: long dsRNA against Drosophila genes
Treatment: pathway stimulated by co-transfected Wingless expression plasmid
Read-out: 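Dual luciferase reads per well after Wingless plasmid stimulation: reporter firefly light and Renilla control light; activity is firefly divided by Renilla, a ratio not deposited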
Direction: firefly reporter light: higher = more Wg reporter light, before normalisation; Renilla control light: higher = more transfected or surviving cells
Active means: 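Strong candidates differ from their plate mean by at least two out of four per-plate statistical tests; weak candidates meet just one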
Calls: active = candidate regulator (raises or lowers reporter); inactive = not a candidate
The screen tested about 22,000 reagents; this is a random part of those that have a named target and a result. In the full data, 233 (1.1%) got an active call. 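Light values are raw, unnormalised plate reads; the ratio scores behind the reporter calls were not deposited.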 Reagent sequences are not shown. Not stated in the record: the amount of reagent, the time to read-out, the dose of the treatment.

With Set1 (GeneID 3354971) [DRSC20930], what does the deposit list?
firefly reporter light, replicate 1: 25237; Renilla control light, replicate 1: 7379; outcome: inactive

What did the screen give for Set1 (GeneID 3354971) [DRSC20931]?
firefly reporter light, replicate 1: 28240; Renilla control light, replicate 1: 8273; outcome: inactive

Which result is listed for PIG-F (GeneID 40139) [DRSC11069]?
firefly reporter light, replicate 1: 16876; Renilla control light, replicate 1: 5794; outcome: inactive

With CG42331 (GeneID 42948) [DRSC14633], what does the deposit list?
firefly reporter light, replicate 1: 4073; Renilla control light, replicate 1: 1175; outcome: inactive

Which result is listed for CG42331 (GeneID 42948) [DRSC16126]?
firefly reporter light, replicate 1: 26076; Renilla control light, replicate 1: 18961; outcome: inactive

What is on record for Prtl99C (GeneID 43526) [DRSC15049]?
firefly reporter light, replicate 1: 7304; Renilla control light, replicate 1: 2151; outcome: inactive

With Eo (GeneID 32423) [DRSC20187], how do the results read?
firefly reporter light, replicate 1: 21683; Renilla control light, replicate 1: 12833; outcome: inactive

What did the screen give for oaf (GeneID 33435) [DRSC00831]?
firefly reporter light, replicate 1: 3776; firefly reporter light, replicate 2: 5819; Renilla control light, replicate 1: 1234; Renilla control light, replicate 2: 1930; outcome: inactive

What did the screen give for Muc4B (GeneID 31368) [DRSC18062]?
firefly reporter light, replicate 1: 21334; Renilla control light, replicate 1: 9546; outcome: inactive

How did the screen score Muc4B (GeneID 31368) [DRSC18063]?
firefly reporter light, replicate 1: 26993; Renilla control light, replicate 1: 12824; outcome: inactive

For sona (GeneID 37762) [DRSC04089], what was measured?
firefly reporter light, replicate 1: 2187; firefly reporter light, replicate 2: 6464; Renilla control light, replicate 1: 658; Renilla control light, replicate 2: 1911; outcome: inactive

Which result is listed for sona (GeneID 37762) [DRSC04574]?
firefly reporter light, replicate 1: 3048; firefly reporter light, replicate 2: 5968; Renilla control light, replicate 1: 570; Renilla control light, replicate 2: 2240; outcome: inactive

What did the screen give for sona (GeneID 37762) [DRSC04575]?
firefly reporter light, replicate 1: 2439; firefly reporter light, replicate 2: 6144; Renilla control light, replicate 1: 699; Renilla control light, replicate 2: 2347; outcome: inactive

With FucTD (GeneID 38164) [DRSC08634], what was measured?
firefly reporter light, replicate 1: 4997; Renilla control light, replicate 1: 1968; outcome: inactive

With Delta (GeneID 42313) [DRSC16648], how do the results read?
firefly reporter light, replicate 1: 11521; Renilla control light, replicate 1: 1875; outcome: inactive

With Prim1 (GeneID 38942) [DRSC11137], what was measured?
firefly reporter light, replicate 1: 856; firefly reporter light, replicate 2: 4632; Renilla control light, replicate 1: 810; Renilla control light, replicate 2: 2308; outcome: inactive

What did the screen give for CG7483 (GeneID 40987) [DRSC16249]?
firefly reporter light, replicate 1: 18280; Renilla control light, replicate 1: 6368; outcome: inactive

How did the screen score CG7483 (GeneID 40987) [DRSC22432]?
firefly reporter light, replicate 1: 6.22e5; firefly reporter light, replicate 2: 6.28e5; Renilla control light, replicate 1: 1.67e5; Renilla control light, replicate 2: 1.77e5; outcome: inactive

With CG15602 (GeneID 32533) [DRSC19671], what does the deposit list?
firefly reporter light, replicate 1: 21442; Renilla control light, replicate 1: 8322; outcome: inactive

For nocte (GeneID 31976) [DRSC18123], what was measured?
reporter change call, replicate 1: Wg reporter activity raised; firefly reporter light, replicate 1: 20138; firefly reporter light, replicate 2: 29979; Renilla control light, replicate 1: 827; Renilla control light, replicate 2: 1686; outcome: active

With CG12496 (GeneID 31226) [DRSC18602], what does the deposit list?
firefly reporter light, replicate 1: 22535; Renilla control light, replicate 1: 8593; outcome: inactive

What is on record for zld (GeneID 32994) [DRSC19486]?
firefly reporter light, replicate 1: 24311; Renilla control light, replicate 1: 10490; outcome: inactive

What is on record for zld (GeneID 32994) [DRSC21721]?
firefly reporter light, replicate 1: 5.10e5; firefly reporter light, replicate 2: 5.04e5; Renilla control light, replicate 1: 1.21e5; Renilla control light, replicate 2: 1.03e5; outcome: inactive

For CG7332 (GeneID 32885) [DRSC20038], what does the deposit list?
firefly reporter light, replicate 1: 3168; firefly reporter light, replicate 2: 7324; Renilla control light, replicate 1: 1101; Renilla control light, replicate 2: 2140; outcome: inactive

How did the screen score CG15406 (GeneID 33542) [DRSC00420]?
firefly reporter light, replicate 1: 1953; firefly reporter light, replicate 2: 5799; Renilla control light, replicate 1: 1045; Renilla control light, replicate 2: 2283; outcome: inactive
